Measured values from PubChem BioAssay AID2685 (National Center for Advancing Translational Sciences (NCATS), 2010).
This is one part of the list. Further columns of the screen follow, without active or inactive calls. Compounds called inactive in the main read-out are mostly missing here. The note in brackets gives the kind of curve behind each potency; many fits are weak.

Assay: qHTS Assay for Lipid Storage Modulators in Drosophila S3 Cells;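 on cell number change: cells counted by Cell Tracker Red CMTPX staining in the red channel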
Settings: BODIPY lipid droplet fluorescence, 18-24 h; for cell number change: measured here: cell count max response, cells fed with added oleic acid
How it was run: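 Laser-scanning cytometry quantifies lipid droplet accumulation (500–530 nm total intensity; droplet/cell object ratio) in oleic acid-fed (400 uM added) Drosophila S3 cells treated with a concentration series. 20 uM Triacsin C defined 100% inhibition.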

[1] = measured here: lipid fluorescence (Fed channel) AC50, cells fed with added oleic acid
[2] = measured here: cell number channel AC50, cells fed with added oleic acid

SMILES | cell number change [%] | AC50 [1] | AC50 [2]
CCc1nnc(NC(=O)c2sc3nc4cc(C)ccc4cc3c2N)s1 | 150 | – | –
Cc1cc(C)c2c(=O)c3c(oc2c1)C(=O)N(CCO)C3c1cccc(O)c1 (stereo unspecified) | 8.41 | 2.59 µM [rising, partial curve] | –
O=C(CCn1nc(-c2ccc(Cl)cc2)ccc1=O)N1CCN(c2ccc(F)cc2)CC1 | -2.13 | – | 6.51 µM [rising, single point]
CCOC(=O)COc1cc(N)c(Cl)cc1Cl | -1.76 | – | –
CC(C)c1nnc(SCC(=O)NCCC2=CCCCC2)n1N | 12.1 | 6.51 µM [falling, single point] | 0.92 µM [falling, full curve]
COc1ccc(NC(=O)c2ccc(OCc3c(C)noc3C)c(OC)c2)cn1 | 10.9 | 0.517 µM [falling, single point] | –
Cc1c(-c2ccc(F)cc2)[n+](=O)c(-c2ccc(F)cc2)c(C)n1[O-] | – | – | 2.59 µM [rising, partial curve, poor fit]
C=CC(=O)NN(C)c1ncc(C(F)(F)F)cc1Cl | -8.27 | – | 4.11 µM [falling, partial curve, poor fit]
COc1ccccc1C(=O)NCCC(=O)N1CCCCCCC1 | -16.2 | – | –
CCOC(=O)c1c(NC(=O)CN2C(=O)NC3(CCCCC3)C2=O)sc(C)c1-c1ccc(C)cc1 | -17.1 | 20.6 µM [falling, partial curve] | –
CCCCn1c(=S)[nH]c2ncccc2c1=O | 6.25 | 14.6 µM [rising, single point] | –
CN1CCN(c2ccc([N+](=O)[O-])cc2NC(=O)c2ccco2)CC1 | 17.3 | 1.64 µM [rising, partial curve, poor fit] | –
COc1ccc(N=Nc2cc(-c3ccccc3)ccc2O)cc1 | -4.21 | 4.11 µM [falling, full curve, poor fit] | –
CCOc1ccc(CN2C(=O)CCC2(C)C(=O)NCc2cccnc2)cc1 (stereo unspecified) | -61.3 | 23.1 µM [falling, partial curve] | 25.9 µM [falling, partial curve]
C=CCn1c(SCC(=O)N(CCOC)c2c(N)n(CC(C)C)c(=O)[nH]c2=O)nc2ccccc21 | -42.6 | 18.4 µM [falling, single point] | 25.9 µM [falling, single point]
O=C(Nc1ccc(N2CCCC2)c(Cl)c1)c1ccc(Br)o1 | 2.26 | 1.3 µM [rising, partial curve, poor fit] | –

Part of the list above, tab-delimited:
SMILES	cell number change [%]	AC50 [1]	AC50 [2]
COc1ccc(N=Nc2cc(-c3ccccc3)ccc2O)cc1	-4.21	4.11 µM [falling, full curve, poor fit]	–
CCOc1ccc(CN2C(=O)CCC2(C)C(=O)NCc2cccnc2)cc1 (stereo unspecified)	-61.3	23.1 µM [falling, partial curve]	25.9 µM [falling, partial curve]

(list continues)

SMILES | cell number change [%] | AC50 [1] | AC50 [2]
O=C(COc1ccc(F)cc1)N(Cc1cccc(Br)c1)C1CCS(=O)(=O)C1 (stereo unspecified) | -17.1 | 29.1 µM [rising, single point] | 0.00517 µM [falling, full curve, poor fit]
Cc1ccc(C(=O)N/N=C\c2sccc2C)cn1 | – | 29.1 µM [falling, single point] | –
COC(=O)c1ccc(C(=O)OC)c(NC(=S)N2CCCC(C)C2)c1 (stereo unspecified) | 22.1 | 1.64 µM [rising, full curve, poor fit] | –
Cc1cccc(C(=O)Oc2ccccc2/C=N/Nc2ccc([N+](=O)[O-])cc2)c1 | 10.7 | 1.64 µM [rising, partial curve] | –
CCOC(=O)c1cnn(-c2nc(-c3ccc(F)cc3)cs2)c1C(F)(F)F | -12.2 | – | –
Cc1ccccc1N1CC(C(=O)N2CC(C)OC(C)C2)CC1=O (stereo unspecified) | 9.21 | – | –
Cn1nc(C(F)(F)F)c(/C=N/OCc2c(Cl)cccc2Cl)c1Cl | 6.9 | 29.1 µM [rising, single point] | –
COc1ccc(C2C(C(=O)C(C)(C)C)=C(O)C(=O)N2Cc2ccccc2)cc1 (stereo unspecified) | 35.1 | 18.4 µM [rising, partial curve, poor fit] | 29.1 µM [rising, single point]
COc1ccc2c(c1)cc(C(=O)N[C@@H](CCSC)C(=O)N1CCC[C@H]1C(=O)O)n2C | 20.8 | – | –
O=C1c2nc3cc(-c4ccccc4)[nH]n3c(=O)c2CN1Cc1ccccc1 | -16.2 | – | –
Cc1cccc(NC(=O)c2cc(N3C(=O)CCC3=O)ccc2Cl)n1 | 4.54 | 20.6 µM [rising, partial curve] | –
NC(=O)c1cccnc1Oc1cccc(Cl)c1 | 21.6 | – | –
COc1cccc(NC(=O)CCN2C(=O)c3ccccc3Sc3ncccc32)c1 | -5.5 | 29.1 µM [rising, single point] | –
O=[N+]([O-])c1cccc(/C=C/c2ccccn2)c1 | 26.5 | 29.1 µM [rising, single point] | –
C/C(=N\NC(=S)NCCc1ccccc1)c1ccc(O)cc1O | -13.3 | – | –
